No constants are given. Whether binding was seen depends on the method and setting. In cells and extracts the contact can be indirect. Binding can be weak; no strength is given.
Biological target: STAT1 mutated at Ser727 (UniProt P42224)
Assay: co-IP; both partners tagged and co-transfected in HEK293T cells; lysis buffer 150 mM NaCl, 20 mM Tris-HCl pH 7.4, 0.5 mM EDTA, 1% NP-40; protein G agarose, 4 C; some panels with IFNα (1000 IU/ml, 15 min) or Flag-LUBAC overexpression

Protein sequences, listed by entry. Tags and fused reporters are not part of them. Lines headed by an entry give the natural chain unless they say otherwise; changes in a name come on top.
UniProt P42224: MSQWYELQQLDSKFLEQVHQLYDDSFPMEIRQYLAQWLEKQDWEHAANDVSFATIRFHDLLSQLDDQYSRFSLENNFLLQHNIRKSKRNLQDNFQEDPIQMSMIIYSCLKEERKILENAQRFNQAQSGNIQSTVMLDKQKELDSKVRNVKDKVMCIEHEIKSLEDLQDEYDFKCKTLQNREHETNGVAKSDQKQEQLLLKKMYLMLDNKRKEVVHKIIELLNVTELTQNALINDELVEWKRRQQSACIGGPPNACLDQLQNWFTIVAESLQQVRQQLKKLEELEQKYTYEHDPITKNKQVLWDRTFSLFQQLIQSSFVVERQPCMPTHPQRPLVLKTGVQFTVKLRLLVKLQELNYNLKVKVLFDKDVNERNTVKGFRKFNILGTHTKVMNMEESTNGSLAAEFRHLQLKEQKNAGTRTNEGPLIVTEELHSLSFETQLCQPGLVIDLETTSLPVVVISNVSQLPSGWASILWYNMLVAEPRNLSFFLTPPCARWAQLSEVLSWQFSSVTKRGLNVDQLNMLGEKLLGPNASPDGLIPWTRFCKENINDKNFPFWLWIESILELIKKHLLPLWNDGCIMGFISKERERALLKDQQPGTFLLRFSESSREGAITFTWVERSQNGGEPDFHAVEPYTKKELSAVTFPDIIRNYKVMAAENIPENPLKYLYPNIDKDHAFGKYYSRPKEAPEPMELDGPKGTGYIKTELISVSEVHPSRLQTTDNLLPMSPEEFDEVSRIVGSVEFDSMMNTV
UniProt Q96EP0: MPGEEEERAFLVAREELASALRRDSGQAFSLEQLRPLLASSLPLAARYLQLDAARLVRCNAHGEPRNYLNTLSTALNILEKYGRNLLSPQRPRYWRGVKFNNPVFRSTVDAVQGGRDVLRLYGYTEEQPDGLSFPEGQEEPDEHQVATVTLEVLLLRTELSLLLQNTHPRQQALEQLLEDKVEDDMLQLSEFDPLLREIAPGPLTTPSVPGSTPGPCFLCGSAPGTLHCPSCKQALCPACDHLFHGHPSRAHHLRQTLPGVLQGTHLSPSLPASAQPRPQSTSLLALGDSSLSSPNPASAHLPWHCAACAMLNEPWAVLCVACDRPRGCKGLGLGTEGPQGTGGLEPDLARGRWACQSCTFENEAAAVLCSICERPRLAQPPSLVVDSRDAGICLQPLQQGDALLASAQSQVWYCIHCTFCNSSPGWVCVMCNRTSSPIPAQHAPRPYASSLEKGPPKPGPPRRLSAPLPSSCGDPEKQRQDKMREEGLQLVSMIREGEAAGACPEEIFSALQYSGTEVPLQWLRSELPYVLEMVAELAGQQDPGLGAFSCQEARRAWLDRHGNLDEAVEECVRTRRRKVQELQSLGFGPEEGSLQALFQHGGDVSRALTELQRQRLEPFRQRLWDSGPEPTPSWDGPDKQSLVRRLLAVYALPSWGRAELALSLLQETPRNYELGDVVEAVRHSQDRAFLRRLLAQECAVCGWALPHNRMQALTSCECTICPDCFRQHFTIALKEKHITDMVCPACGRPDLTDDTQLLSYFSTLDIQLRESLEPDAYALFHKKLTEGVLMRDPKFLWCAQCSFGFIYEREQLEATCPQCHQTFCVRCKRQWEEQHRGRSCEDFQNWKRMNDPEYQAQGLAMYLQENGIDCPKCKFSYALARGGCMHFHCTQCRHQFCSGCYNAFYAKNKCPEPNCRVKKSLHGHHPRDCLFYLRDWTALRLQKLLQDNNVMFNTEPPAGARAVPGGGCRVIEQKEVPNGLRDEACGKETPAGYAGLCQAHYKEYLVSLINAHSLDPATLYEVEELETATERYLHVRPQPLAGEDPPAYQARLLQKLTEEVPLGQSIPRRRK

Flag-HOIP (from UniProt Q96EP0 1-1072) (enzyme)
binding: binds

Source: paper PMC7052135
